According to the supplement of paper PMC8728848:
The list shows a part of the results.

Assays:
Experiment in all cases: glycan array binding signal (z-score within array); higher = stronger binding
Conditions in all cases: glycan notation: IUPAC condensed, linker removed
[1] = biological target: Fuc(a1-2)Gal6S(b1-3)GlcNAc6S
Summary of the method: (§1)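 Glycan array data were curated from 3228 arrays in the Consortium for Functional Glycomics database and kept only where the protein sequence was available. Glycan names were converted to IUPAC-condensed notation, and columns mapping to the same glycan were averaged. The binding signal is a within-array Z-score, averaged across arrays of the same protein sequence at different concentrations or buffers and across linkers. Negative Z-scores can be read as non-binding.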

Fuc(a1-2)Gal6S(b1-4)Glc = biological target: Fuc(a1-2)Gal6S(b1-4)Glc
Summary of the method: as §1

[2] = biological target: Fuc(a1-2)Gal6S(b1-4)Glc6S
Summary of the method: as §1

Fuc(a1-2)[Gal(a1-3)]Gal = biological target: Fuc(a1-2)[Gal(a1-3)]Gal
Summary of the method: as §1

[3] = biological target: Fuc(a1-2)[Gal(a1-3)]Gal(b1-3)GalNAc
Summary of the method: as §1

[4] = biological target: Fuc(a1-2)[Gal(a1-3)]Gal(b1-3)GalNAc(b1-3)Gal(a1-4)Gal(b1-4)Glc
Summary of the method: as §1

[5] = biological target: Fuc(a1-2)[Gal(a1-3)]Gal(b1-3)GlcNAc
Summary of the method: as §1

[6] = biological target: Fuc(a1-2)[Gal(a1-3)]Gal(b1-3)GlcNAc(b1-2)Man(a1-3)[Fuc(a1-2)[Gal(a1-3)]Gal(b1-3)GlcNAc(b1-2)Man(a1-6)]Man(b1-4)GlcNAc(b1-4)GlcNAc
Summary of the method: as §1

[7] = biological target: Fuc(a1-2)[Gal(a1-3)]Gal(b1-3)GlcNAc(b1-2)Man(a1-3)[Fuc(a1-2)[Gal(a1-3)]Gal(b1-3)GlcNAc(b1-2)Man(a1-6)]Man(b1-4)GlcNAc(b1-4)[Fuc(a1-6)]GlcNAc
Summary of the method: as §1

[8] = biological target: Fuc(a1-2)[Gal(a1-3)]Gal(b1-3)GlcNAc(b1-3)GalNAc
Summary of the method: as §1

[9] = biological target: Fuc(a1-2)[Gal(a1-3)]Gal(b1-3)GlcNAc(b1-6)GalNAc
Summary of the method: as §1

[10] = biological target: Fuc(a1-2)[Gal(a1-3)]Gal(b1-4)Glc
Summary of the method: as §1

[11] = biological target: Fuc(a1-2)[Gal(a1-3)]Gal(b1-4)GlcNAc
Summary of the method: as §1

[12] = biological target: Fuc(a1-2)[Gal(a1-3)]Gal(b1-4)GlcNAc(b1-2)Man
Summary of the method: as §1

[13] = biological target: Fuc(a1-2)[Gal(a1-3)]Gal(b1-4)GlcNAc(b1-2)Man(a1-3)[Fuc(a1-2)[Gal(a1-3)]Gal(b1-4)GlcNAc(b1-2)Man(a1-6)]Man(b1-4)GlcNAc(b1-4)GlcNAc
Summary of the method: as §1

[14] = biological target: Fuc(a1-2)[Gal(a1-3)]Gal(b1-4)GlcNAc(b1-2)Man(a1-3)[Fuc(a1-2)[Gal(a1-3)]Gal(b1-4)GlcNAc(b1-2)Man(a1-6)]Man(b1-4)GlcNAc(b1-4)[Fuc(a1-6)]GlcNAc
Summary of the method: as §1

[15] = biological target: Fuc(a1-2)[Gal(a1-3)]Gal(b1-4)GlcNAc(b1-3)GalNAc
Summary of the method: as §1

[16] = biological target: Fuc(a1-2)[Gal(a1-3)]Gal(b1-4)GlcNAc(b1-3)[Fuc(a1-2)[Gal(a1-3)]Gal(b1-4)GlcNAc(b1-6)]GalNAc
Summary of the method: as §1

[17] = biological target: Fuc(a1-2)[Gal(a1-3)]Gal(b1-4)GlcNAc(b1-6)GalNAc
Summary of the method: as §1

[18] = biological target: Fuc(a1-2)[Gal(a1-3)]Gal(b1-4)[Fuc(a1-3)]Glc
Summary of the method: as §1

[19] = biological target: Fuc(a1-2)[Gal(a1-3)]Gal(b1-4)[Fuc(a1-3)]GlcNAc
Summary of the method: as §1

[20] = biological target: Fuc(a1-2)[Gal(a1-3)]Gal(b1-4)[Fuc(a1-3)]GlcNAc(b1-3)GalNAc
Summary of the method: as §1

[21] = biological target: Fuc(a1-2)[Gal(a1-4)]Gal(b1-4)GlcNAc
Summary of the method: as §1

[22] = biological target: Fuc(a1-2)[GalNAc(a1-3)]Gal
Summary of the method: as §1

[23] = biological target: Fuc(a1-2)[GalNAc(a1-3)]Gal(b1-3)GalNAc(a1-3)[Fuc(a1-2)]Gal(b1-4)GlcNAc
Summary of the method: as §1

[24] = biological target: Fuc(a1-2)[GalNAc(a1-3)]Gal(b1-3)GalNAc(b1-3)Gal(a1-4)Gal(b1-4)Glc
Summary of the method: as §1

[25] = biological target: Fuc(a1-2)[GalNAc(a1-3)]Gal(b1-3)GlcNAc
Summary of the method: as §1

[26] = biological target: Fuc(a1-2)[GalNAc(a1-3)]Gal(b1-3)GlcNAc(b1-2)Man(a1-3)[Fuc(a1-2)[GalNAc(a1-3)]Gal(b1-3)GlcNAc(b1-2)Man(a1-6)]Man(b1-4)GlcNAc(b1-4)GlcNAc
Summary of the method: as §1

[27] = biological target: Fuc(a1-2)[GalNAc(a1-3)]Gal(b1-3)GlcNAc(b1-2)Man(a1-3)[Fuc(a1-2)[GalNAc(a1-3)]Gal(b1-3)GlcNAc(b1-2)Man(a1-6)]Man(b1-4)GlcNAc(b1-4)[Fuc(a1-6)]GlcNAc
Summary of the method: as §1

[28] = biological target: Fuc(a1-2)[GalNAc(a1-3)]Gal(b1-3)GlcNAc(b1-3)GalNAc
Summary of the method: as §1

[29] = biological target: Fuc(a1-2)[GalNAc(a1-3)]Gal(b1-3)GlcNAc(b1-6)GalNAc
Summary of the method: as §1

[30] = biological target: Fuc(a1-2)[GalNAc(a1-3)]Gal(b1-4)Glc
Summary of the method: as §1

[31] = biological target: Fuc(a1-2)[GalNAc(a1-3)]Gal(b1-4)GlcNAc
Summary of the method: as §1

[32] = biological target: Fuc(a1-2)[GalNAc(a1-3)]Gal(b1-4)GlcNAc(b1-2)Man
Summary of the method: as §1

[33] = biological target: Fuc(a1-2)[GalNAc(a1-3)]Gal(b1-4)GlcNAc(b1-2)Man(a1-3)[Fuc(a1-2)[GalNAc(a1-3)]Gal(b1-4)GlcNAc(b1-2)Man(a1-6)]Man(b1-4)GlcNAc(b1-4)GlcNAc
Summary of the method: as §1

[34] = biological target: Fuc(a1-2)[GalNAc(a1-3)]Gal(b1-4)GlcNAc(b1-2)Man(a1-3)[Fuc(a1-2)[GalNAc(a1-3)]Gal(b1-4)GlcNAc(b1-2)Man(a1-6)]Man(b1-4)GlcNAc(b1-4)[Fuc(a1-6)]GlcNAc
Summary of the method: as §1

[35] = biological target: Fuc(a1-2)[GalNAc(a1-3)]Gal(b1-4)GlcNAc(b1-3)Gal(b1-4)GlcNAc
Summary of the method: as §1

[36] = biological target: Fuc(a1-2)[GalNAc(a1-3)]Gal(b1-4)GlcNAc(b1-3)Gal(b1-4)GlcNAc(b1-3)Gal(b1-4)GlcNAc
Summary of the method: as §1

[37] = biological target: Fuc(a1-2)[GalNAc(a1-3)]Gal(b1-4)GlcNAc(b1-3)GalNAc
Summary of the method: as §1

[38] = biological target: Fuc(a1-2)[GalNAc(a1-3)]Gal(b1-4)GlcNAc(b1-3)[Fuc(a1-2)[GalNAc(a1-3)]Gal(b1-4)GlcNAc(b1-6)]GalNAc
Summary of the method: as §1

[39] = biological target: Fuc(a1-2)[GalNAc(a1-3)]Gal(b1-4)GlcNAc(b1-6)GalNAc
Summary of the method: as §1

[40] = biological target: Fuc(a1-2)[GalNAc(a1-3)]Gal(b1-4)[Fuc(a1-3)]GlcNAc
Summary of the method: as §1

[41] = biological target: Fuc(a1-2)[GalNAc(a1-3)]Gal(b1-4)[Fuc(a1-3)]GlcNAc(b1-3)GalNAc
Summary of the method: as §1

[42] = biological target: Fuc(a1-2)[GalNAc(a1-4)]Gal(b1-4)GlcNAc
Summary of the method: as §1

[43] = biological target: Fuc(a1-2)[GalNAc(b1-3)]Gal
Summary of the method: as §1

B1: PX9961M-bvu-482-23-482 (Bacteroides vulgatus) (protein)
chain: WLDLAPSTQVDTETSINVLSDIEFTLNGIYSTMQSSDAYSGRLVYYGDVTGDDMQAVSSTKRTGNYYRFNFTKDNGPSSHWSYLYSIIQNCNLILMNVDKLSIDEDETEYKNDLKGQALAIRGMALFDLTRIFGYPYLKDNGASLGVPIVKELSTIDSKPARNTVAECYTEIISDLKNSTELLSGDFNKGKVNRWAAMTLLSRVYLYKGEYNEALTMAENAIKGAEKEGYALWTNEEYPTAWGNDASASNPGEILFEIVNLTTDSPGKESMGYLNSYNGYDDMCITCSFYQLLKKDPKDVRLKILSFDKKYYAYVNKYQPQQGENITDANIPLIRLSEAYLNAAEAAVQTGDNAKAVKYLNSIVQRANPENSVEGKTLTLENVLDERRKELVAEGHRMYDVIRNGMTVKRIDVKDSDINKTKHNTAYMEYDWNFHKILLPIPKKEMDANPNMKQNPGYVD
[1]
  glycan array binding signal (z-score): 1.29
Fuc(a1-2)Gal6S(b1-4)Glc
  glycan array binding signal (z-score): -0.841
[2]
  glycan array binding signal (z-score): 0.138
Fuc(a1-2)[Gal(a1-3)]Gal
  glycan array binding signal (z-score): 0.516
[3]
  glycan array binding signal (z-score): 0.222
[4]
  glycan array binding signal (z-score): -0.376
[5]
  glycan array binding signal (z-score): -0.45
[6]
  glycan array binding signal (z-score): 0.126
[7]
  glycan array binding signal (z-score): -0.251
[8]
  glycan array binding signal (z-score): -1.05
[9]
  glycan array binding signal (z-score): 0.159
[10]
  glycan array binding signal (z-score): 0.247
[11]
  glycan array binding signal (z-score): -0.597
[12]
  glycan array binding signal (z-score): -0.129
[13]
  glycan array binding signal (z-score): 1.68
[14]
  glycan array binding signal (z-score): 0.208
[15]
  glycan array binding signal (z-score): -0.714
[16]
  glycan array binding signal (z-score): -0.008
[17]
  glycan array binding signal (z-score): 0.341
[18]
  glycan array binding signal (z-score): -0.572
[19]
  glycan array binding signal (z-score): -0.364
[20]
  glycan array binding signal (z-score): 1.17
[21]
  glycan array binding signal (z-score): 0.547
[22]
  glycan array binding signal (z-score): -0.004
[23]
  glycan array binding signal (z-score): -0.77
[24]
  glycan array binding signal (z-score): 0.188
[25]
  glycan array binding signal (z-score): -0.348
[26]
  glycan array binding signal (z-score): -0.044
[27]
  glycan array binding signal (z-score): -0.35
[28]
  glycan array binding signal (z-score): -0.308
[29]
  glycan array binding signal (z-score): -0.49
[30]
  glycan array binding signal (z-score): -0.742
[31]
  glycan array binding signal (z-score): -0.616
[32]
  glycan array binding signal (z-score): -0.735
[33]
  glycan array binding signal (z-score): 0.898
[34]
  glycan array binding signal (z-score): -0.034
[35]
  glycan array binding signal (z-score): -0.419
[36]
  glycan array binding signal (z-score): 0.797
[37]
  glycan array binding signal (z-score): -0.231
[38]
  glycan array binding signal (z-score): 0.213
[39]
  glycan array binding signal (z-score): -0.373
[40]
  glycan array binding signal (z-score): 0.826
[41]
  glycan array binding signal (z-score): -0.446
[42]
  glycan array binding signal (z-score): -0.779
[43]
  glycan array binding signal (z-score): 0.245
